Laboratory results from article PMC6220109.

Molecular target: T1, His-tagged recombinant PIP region of PfRCC-PIP, wild type (P. falciparum) (UniProt Q8I2V4)
T1 sequence: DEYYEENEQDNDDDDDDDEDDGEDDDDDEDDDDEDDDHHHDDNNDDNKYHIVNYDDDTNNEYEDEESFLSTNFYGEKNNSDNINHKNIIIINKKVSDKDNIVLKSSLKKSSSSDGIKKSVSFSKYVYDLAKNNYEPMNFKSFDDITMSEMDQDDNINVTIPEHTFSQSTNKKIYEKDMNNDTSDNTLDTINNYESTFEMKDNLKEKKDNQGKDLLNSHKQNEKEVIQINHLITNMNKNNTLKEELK
Assay: co-IP; beads coupled to antibodies raised against PfRCC-PIP (or pre-immune serum) incubated with recombinant wild type or mutated PIP region and then with PfPP1-GST; immunoblot with anti-GST; both purified

- binding: binds
Substance: PfPP1-GST (P. falciparum) (enzyme)

No constants are given. Whether binding was seen depends on the method and setting. Binding seen in cells or lysates may run through a third protein. Binding can be weak; no strength is given. Sequences can lack the tags named with a protein.
